Experimental data reported in PMC3598860.
These are yes or no findings as the source states them, for the method shown. In cells and extracts the contact can be indirect. Binding calls can cover weak binding; strength is not graded here. For some assays here: Where a sequence is shown, tags or fusion partners need not be part of it.

Sequences of proteins named here, by UniProt entry; tags and fusion partners are left off.
UniProt Q13616: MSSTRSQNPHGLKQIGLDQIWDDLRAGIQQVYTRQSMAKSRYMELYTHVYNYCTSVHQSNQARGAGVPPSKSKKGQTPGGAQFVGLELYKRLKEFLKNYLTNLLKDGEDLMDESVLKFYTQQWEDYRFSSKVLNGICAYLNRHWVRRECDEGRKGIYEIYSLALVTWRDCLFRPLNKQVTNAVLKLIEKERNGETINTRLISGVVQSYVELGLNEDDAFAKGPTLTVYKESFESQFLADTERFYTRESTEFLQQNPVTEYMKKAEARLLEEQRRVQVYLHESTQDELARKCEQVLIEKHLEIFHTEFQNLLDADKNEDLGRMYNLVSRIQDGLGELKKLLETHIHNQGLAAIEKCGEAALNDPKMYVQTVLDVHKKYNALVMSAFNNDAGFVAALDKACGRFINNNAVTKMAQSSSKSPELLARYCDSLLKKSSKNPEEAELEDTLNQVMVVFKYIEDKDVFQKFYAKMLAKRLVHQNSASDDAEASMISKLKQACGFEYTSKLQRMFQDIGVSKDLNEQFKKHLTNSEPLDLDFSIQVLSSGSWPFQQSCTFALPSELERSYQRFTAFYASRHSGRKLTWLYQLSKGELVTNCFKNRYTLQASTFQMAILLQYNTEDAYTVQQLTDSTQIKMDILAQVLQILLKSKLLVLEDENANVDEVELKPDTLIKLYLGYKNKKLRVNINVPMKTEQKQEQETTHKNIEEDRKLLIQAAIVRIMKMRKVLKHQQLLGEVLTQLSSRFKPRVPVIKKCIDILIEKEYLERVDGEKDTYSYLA

Experiments:
[1] = target: HA-Cul1 (UniProt Q13616); assay: co-IP; transfected HEK293 or HEK293T cells; lysis in 20 mM Tris-HCl pH 7.5, 150 mM NaCl, 1 mM EDTA, 0.5% NP-40; anti-Flag M2 agarose or anti-HA agarose, 2 hours at 4°C; immunoblot; in some panels cells treated with MLN4924, MG132 or 5 ng/ml TNF-α
[2] = target: T1, HA-Brap2 WT (human) (UniProt Q7Z569); assay: as above
T1 sequence: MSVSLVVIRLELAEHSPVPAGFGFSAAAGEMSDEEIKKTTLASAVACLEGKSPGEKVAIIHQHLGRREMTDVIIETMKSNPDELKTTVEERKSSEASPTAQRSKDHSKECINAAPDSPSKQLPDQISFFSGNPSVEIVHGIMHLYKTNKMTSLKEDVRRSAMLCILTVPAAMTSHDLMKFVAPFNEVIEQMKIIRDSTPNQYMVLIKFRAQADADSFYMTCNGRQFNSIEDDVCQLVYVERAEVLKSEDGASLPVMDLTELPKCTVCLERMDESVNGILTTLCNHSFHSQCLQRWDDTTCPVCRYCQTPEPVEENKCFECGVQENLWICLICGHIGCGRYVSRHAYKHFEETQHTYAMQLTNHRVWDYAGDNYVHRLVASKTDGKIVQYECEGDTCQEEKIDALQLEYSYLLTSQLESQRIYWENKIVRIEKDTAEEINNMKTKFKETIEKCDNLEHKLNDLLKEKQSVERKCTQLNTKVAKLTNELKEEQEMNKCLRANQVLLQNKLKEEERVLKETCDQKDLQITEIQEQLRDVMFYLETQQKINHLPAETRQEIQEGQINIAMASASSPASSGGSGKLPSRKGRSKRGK

binding [1]: binds weakly | binding [2]: binds
Substance: Flag-Brap2 CA (single mutation at cysteine-264 in the RING-finger domain) (from UniProt Q7Z569)
